Measured values as given in US7879853B2, “4,6-disubstituted pyrimidines and their use as protein kinase inhibitors” (Bayer Schering Pharma AG, priority 2004, dated 2011).
Where a name gives a salt, the structure may show the parent alone. Some of these results come from one statement about several compounds together. At least one structure is not confirmed: it was looked up by name or label, or the drawing left a doubt.

Sequences of proteins named here, by UniProt entry; tags and fusion partners are left off. Residues count along the entry.
UniProt P31749, 107-480 limits assumed, stated change not applied: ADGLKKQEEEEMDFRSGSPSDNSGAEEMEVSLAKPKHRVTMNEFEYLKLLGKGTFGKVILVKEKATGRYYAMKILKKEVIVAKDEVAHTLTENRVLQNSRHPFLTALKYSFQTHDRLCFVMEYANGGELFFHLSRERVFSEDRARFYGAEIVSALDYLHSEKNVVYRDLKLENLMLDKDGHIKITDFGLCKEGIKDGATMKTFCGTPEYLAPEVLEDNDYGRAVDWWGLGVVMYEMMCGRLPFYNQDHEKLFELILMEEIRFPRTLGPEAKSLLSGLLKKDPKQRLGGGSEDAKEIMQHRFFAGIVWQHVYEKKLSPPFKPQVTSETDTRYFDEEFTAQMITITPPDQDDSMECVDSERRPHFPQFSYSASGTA

Columns and labels:
GST-ΔPH-Akt1 = biological target: T1, GST-ΔPH-Akt1 (Homo sapiens, UniProt P31749); test: Biochemical ΔPH Akt1 assay (flashplate, 33P-ATP, histone 2B); settings: GST-ΔPH-Akt1, histone 2B substrate, 100 nM ATP, 80 minutes at 30° C.; read-out: Akt inhibition: IC50 (inhibition of deltaPHAkt1)
T1 construct: named GST-deltaPH-Akt1; 107480aa; cloned in the pAcG1 vector; made in house; host or cells: SF9 insect cells (pAcG1 vector), co-expressed with PDK1
From the text: For the biochemical assay ΔPHAkt1 was used devoid of its PH domain as a GST fusion protein (named GST-deltaPH-Akt1; 107480aa; cloned in the pAcG1 vector (BD Biosciences Pharmingen)), co-expressed with PDK1 in SF9 insect cells. The protein was purified using glutathion-affinity chromatography by standard protocols.
In order to study the inhibition of Akt according to the invention, a flashplate-based assay has been developed.
The Akt1 assay is a biochemical assay using Akt1 devoid of its PH domain and co-expressed with PDK1 in insect cells. The GST-ΔPH-Akt1 assay is run in 96 well plates by incubating 100 ng/well GST-ΔPH-Akt1, 100 ng/well histone 2B (Roche, #223514) as substrate, 10 μl of compound of invention (test compounds were dissolved as 10 mM solutions in dimethylsulfoxide (DMSO) and subsequently diluted) and 100 nM ATP (including ^33P-ATP) in 100 μl of reaction buffer ([…], pH7.5; 3 mM MgCl2; 3 mM MnCl2; 3 μM Na-Orthovanadat; 1 mM DTT; 1 μg/ml PEG8000) for 80 minutes at 30° C. The reactions are terminated by adding 100 μl stopping buffer (2% H3PO4 for 5 minutes) and are washed 3 times by using washing buffer (0.9% NaCl). Relying on the incorporation of ^33P into the protein substrate histone 2B, the detection is based on the adhesion of the phosphorylated protein to the surface of scintillator-coated flash plates (NEN, USA; #SMP-200). This phosphorylation is measured by counting the plate for 60 sec. using a plate reader (Wallac Microbeta; Perkin Elmer, USA). The analysis of the data is performed using a biostatistical program (GraphPad Prism, USA).

[1] = biological target: T2, Akt1 (full-length Akt1, inactive) (Homo sapiens, UniProt P31749); test: Biochemical Akt1 (inactive) assay (full-length Akt1), IMAP, PDK1-dependent activation; settings: activation by PDK1 with PIP3 vesicles, 50 μM ATP, 60 min. at room temperature; read-out: Inhibition of Akt1 activation (full-length Akt1, inactive): IC50
T2 construct: recombinant full-length human Akt1 a containing N-terminal His6 tag; His6 (N); purchased Upstate, UK #14-279; host or cells: baculovirus infected Sf21 insect cells
Description: The enzyme is purified using Ni2+/NTA-agarose (Upstate, UK; #14-279).
The enzyme is purified using Ni2+/NTA-agarose.
PDK1-dependent activation and subsequent enzymatic activity of Akt1: Activity of purified human Akt1 is routinely measured in an assay in which the enzyme is first activated by PDK1 in the presence of phosphatidylinositol-3,4,5-triphosphate (PIP3). Once activated, Akt1-dependent phosphorylation of a fluorescence labelled peptide substrate is measured by fluorescence polarisation using the IMAP technology (Molecular Devices).
The phospholipids are prepared as follows: 5 mg DOPC/DOPS are solved in 200 μl 10 mM Tris (pH 7.4) and 300 μg PIP3 are resuspended in 950 μl 10 mM Tris (pH 7.4) by pipetting. 950 μl solved PIP3 are mixed with 50 μl solved DOPC/DOPS and incubated for 2 h at a temperature below 20° C. Then the mixture is subjected to sonification for 30 min. at max. power until a translucent phopholipid vesicle preparation is obtained. Aliquots of the vesicle suspension are frozen at −80° C. until needed, likewise the solved DOPC/DOPS.
Assays are performed in 384-well plates. Incubations are carried out for 60 min. at room temperature. […] After the incubation the beads (IMAP binding reagent; Molecular Devices; 1:167) are added and the fluorescence polarization is measured (excitation 485 nm, emission 530 nm). […]

MDA-MB-468 cells = test: Cellular proliferation/cytotoxicity assay (Alamar Blue), MDA-MB-468; type: cell-based; settings: MDA-MB-468, 48 hours, Alamar Blue (Resazurin); read-out: Anti-proliferative/cytotoxic activity: IC50 MDA468
Description: (§1) The anti-proliferative activity of the compounds as described herein, is evaluated using MCF7 and MDA-MB-468 (ATCC HTB-22 and HTB-132) cell lines and the Alamar Blue (Resazurin) cell viability assay (O'Brien et al. Eur J Biochem 267, 5421-5426, 2000). Resazurin is reduced to the fluorescent rescrufin by cellular dehydrogenase activity, correlating with viable, proliferating cells. Test compounds are dissolved as 10 mM solutions in DMSO and subsequently diluted. MCF7 or […] cells were seeded into 96 well flat bottom plates at a density of 10000 cells/well (MCF7) or 5000 cells/well (MDA-MB-468) in a volume of 200 μl/well. 24 hours after seeding, 1 μl each of the compound dilutions are added into each well of the 96 well plates. Each compound dilution is tested as at least as duplicates. Wells containing untreated control cells were filled with 200 μl DMEM containing 0.5% v:v DMSO. The cells are then incubated with the substances for 48 hours at 37° C. in a humidified atmosphere containing 5% carbon dioxide. […] After 4 hours incubation at 37° C. the fluorescence is measured at an extinction of 544 nm and an emission of 590 nm (Wallac Victor2; Perkin Elmer, USA). […] Viabilities are expressed as % values. The corresponding IC50 values of the compounds for cytotoxic activity are determined from the concentration-effect curves by means of non-linear regression. […]

MCF7 cells = test: Cellular proliferation/cytotoxicity assay (Alamar Blue), MCF7; type: cell-based; settings: MCF7, 48 hours, Alamar Blue (Resazurin); read-out: Anti-proliferative/cytotoxic activity: IC50 MCF7
Description: as §1

[2] = biological target: T3, Akt1 (full-length Akt1, active) (Homo sapiens, UniProt P31749); test: Biochemical Akt1 (active) assay (full-length Akt1), flashplate, Crosstide; settings: Crosstide substrate, 100 nM ATP, 60 minutes at 30° C.; read-out: Akt1 inhibition (full-length Akt1, active): IC50
T3 construct: recombinant full-length human Akt1, containing N-terminal His6 tag; His6 (N); GST (alternative statement of the assay paragraph) (N); purchased Upstate, UK #14-276; host or cells: baculovirus infected Sf21 insect cells
From the text: For the biochemical Akt1 assay recombinant full-length human Akt1, containing N-terminal His6 tag was cloned and expressed in baculovirus infected Sf21 insect cells. Akt1 is activated with GST-MAPKAP-K2 and PDK1, and repurified on Ni2+/NTA-agrose and glutathioneagarose (Upstate, UK; #14-276).
In order to study the inhibition of Akt1 (full-length version) according to the invention, a flashplate-based assay has been developed.
The full-length Akt1 assay is a biochemical assay using Akt1 N-terminally fused to GST and co-expressed with PDK1 in insect cells. The Akt1 assay is run in 96 well plates by incubating 500 ng/well GST-Akt1, 1 μM Crosstide (N-terminally biotinylated synthetic peptide (KGSGSGRPRTSSFAEG) Upstate, #12-385) as substrate, 10 μl of test compound (test compounds were dissolved as 10 mM solutions in dimethylsulfoxide (DMSO) and subsequently diluted) and 100 nM ATP (including ^33P-ATP) in 100 μl of reaction buffer (50 mM HEPES, pH7.5; 3 mM MgCl2; 3 mM MnCl2; 3 μM Na-Orthovanadat; 1 mM DTT; 1 μg/ml PEG8000) for 60 minutes at 30° C. in 96 well microtiter plates. The reactions are terminated by adding 100 μl stopping buffer (5M NaCl, 35 mM EDTA pH 8,0) for 5 minutes. […] This phosphorylation is measured by counting the plate for 60 sec. using a plate reader (Wallac Microbeta; Perkin Elmer, USA). […]

NCc1ccnc(C(=O)Nc2ccc(Nc3cc(-c4cccc5c4oc4ccccc45)ncn3)cc2)c1 [Compound 56, 4-Aminomethyl-pyridin-2-carbonsäure-[4-(6-dibenzofuran-4-yl-pyrimidin-4-ylamino)-phenyl]-amide trifluoroacetate]
IC50 (GST-ΔPH-Akt1): ≤ 2000 nM

O=C(Nc1ccc(Nc2cc(-c3cccc4c3oc3ccccc34)ncn2)cc1)c1ccc2c(c1)CNCC2 [Compound 68, 1,2,3,4-Tetrahydro-isochinolin-7-carbonsäure-[4-(6-dibenzofuran-4-yl-pyrimidin-4-ylamino)-phenyl]-amide trifluoroacetate]
IC50 [1]: ≤ 4.4 µM | IC50 (MDA-MB-468 cells): ≤ 6.05 µM | IC50 (MCF7 cells): ≤ 16.6 µM | IC50 (GST-ΔPH-Akt1): ≤ 2000 nM | IC50 [2]: ≤ 1750 nM

NCCc1cccc(C(=O)Nc2ccc(Nc3cc(-c4cccc5c4oc4ccccc45)ncn3)cc2)c1 [Compound 70, 3-(2-Amino-ethyl)-N-[4-(6-dibenzofuran-4-yl-pyrimidin-ylamino)-phenyl]-benzamide trifluoroacetate]
IC50 (GST-ΔPH-Akt1): ≤ 2000 nM
